{"source": "paper PMC4894380", "key": {"[1]": {"molecular_target": "MqsA (UniProt Q46864)", "assay": "competition with a labelled probe", "details": "excess unlabeled p-csgD reverses binding to labeled p-csgD; 10 mM Tris-HCl pH 7.5, 50 mM KCl, 1 mM DTT, 1 ug poly(dI.dC), 30-50 fmol labeled probe, ambient temperature, 1 h; 6% gel, 0.5x TBE; recombinant protein; protein details: His6 tag removed by TEV cleavage; probe letters rebuilt from the primers and the genome"}, "[2]": {"molecular_target": "MqsA (UniProt Q46864)", "assay": "EMSA", "details": "10 mM Tris-HCl pH 7.5, 50 mM KCl, 1 mM DTT, 1 ug poly(dI.dC), 30-50 fmol labeled probe, ambient temperature, 1 h, 6% gel, 0.5x TBE, recombinant protein, protein details: His6 tag removed by TEV cleavage"}}, "note": "Construct, isoform or probe ends are uncertain for at least one entry. For part of these data: A weaker result is weaker than the reference pair of the same experiment."}
{"sequence": "ATGTATGACCATGAATACTATGGACTTCATTAAACATGATGAAACCCCGCTTTTTTTATTGATCGCACACCTGACAGCTGCCTCTAAAATAGAAGCACCAGAAGTACTGACAGATGTTGCACTGCTGTGTGTAGTAATAAATCAGCCCTAAATGGGTAAAATATAAAACTAATGGATTACATCTGATTTCAATCTAGCCATTACAAATCTTAAATCAAGTGTTAAACATGTAACTAAATGTAACTCGTTATATTAAAATGTTAACCTTAAGGTTTTATTAAGTTTAGAAATGATAGAAAAGTTGTACATTTG (double strand) [p-csgD unlabeled (312 bp)]", "values": [{"measurement": "binding result", "setting": "[1]", "value": "binds"}]}
{"sequence": "ATGTATGACCATGAATACTATGGACTTCATTAAACATGATGAAACCCCGCTTTTTTTATTGATCGCACACCTGACAGCTGCCTCTAAAATAGAAGCACCAGAAGTACTGACAGATGTTGCACTGCTGTGTGTAGTAATAAATCAGCCCTAAATGGGTAAAATATAAAACTAATGGATTACATCTGATTTCAATCTAGCCATTACAAATCTTAAATCAAGTGTTAAACATGTAACTAAATGTAACTCGTTATATTAAAATGTTAACCTTAAGGTTTTATTAAGTTTAGAAATGATAGAAAAGTTGTACATTTG (double strand) [p-csgD (312 bp)]", "values": [{"measurement": "binding result", "setting": "[2]; 200-fold excess MqsA, label: 3' biotin, probe letters rebuilt from the primers and the genome", "value": "binds"}]}
{"sequence": "ACTTAATAAAACCTTATCACCAACATTTTA (double strand) [p-csgD mutated palindrome 30-mer]", "values": [{"measurement": "binding result", "setting": "[2]; 50-, 100- and 200-fold excess MqsA, binding drastically reduced, label: 3' biotin on both strands", "value": "binds more weakly"}]}
